# Reference: PubChem BioAssay AID1259405 (NCATS, 2018)
# Test: 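Knock-downs that lift recombinant protein yield in hamster ovary cells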 (primary screen)
# Cell system: Chinese hamster CHO-K1 ovary cells with stable secreted eGFP expression
# Reagent: single siRNA against mouse genes, 0.8 pmol siRNA per well (2 µl of 400 nM stock)
# Duration: 3 days
# Detection: 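Percent of the per-plate non-targeting control median for intracellular GFP per well by laser scanning cytometry and for cell viability by ATP luminescence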
# Scale: GFP, % of control: higher = more GFP per well, higher productivity; viability (ATP), % of control: higher = more viable cells (more ATP)
# Rule for the call: 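Called active when intracellular GFP, relative to negative control, is at or above 120%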
# Shown is an unselected part of about 50,000 reagents tested. Over the whole deposit, about 4,000 (8%) are marked active. 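Mouse siRNA library applied to hamster cells; one well for each siRNA.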 Entries without a mark were called inactive. Reagents against one gene are numbered here. Reagent sequences are not shown.
Target gene,siRNA no.,"GFP, % of control","viability (ATP), % of control"
Or8b8 (olfactory receptor family 8 subfamily B member 8),1,30.4,46.9
Or8b8 (olfactory receptor family 8 subfamily B member 8),2,108,97.3
Or8b8 (olfactory receptor family 8 subfamily B member 8),3,80.4,84.5
Psap (prosaposin),1,69.2,108
Psap (prosaposin),2,72.9,58.3
Sipa1l3 (signal-induced proliferation-associated 1 like 3),1,55.9,63.6
Sipa1l3 (signal-induced proliferation-associated 1 like 3),2,43.9,46.7
Sipa1l3 (signal-induced proliferation-associated 1 like 3),3,63.1,64.4
"Syne2 (spectrin repeat containing, nuclear envelope 2)",1,120 (active),92.7
"Syne2 (spectrin repeat containing, nuclear envelope 2)",2,83.9,84.9
"Syne2 (spectrin repeat containing, nuclear envelope 2)",3,95.7,110
"Hbb-b1 (hemoglobin, beta adult major chain)",1,63.8,50.4
"Hbb-b1 (hemoglobin, beta adult major chain)",2,126 (active),96
"Hbb-b1 (hemoglobin, beta adult major chain)",3,93,64.4
Gabra1 (gamma-aminobutyric acid type A receptor subunit alpha 1),1,93.1,94.2
Gabra1 (gamma-aminobutyric acid type A receptor subunit alpha 1),2,64.9,60
Gabra1 (gamma-aminobutyric acid type A receptor subunit alpha 1),3,46.9,49.1
Tg (thyroglobulin),1,25.3,62.5
Tg (thyroglobulin),2,88.1,74
Tg (thyroglobulin),3,87.4,119
Ndst2 (N-deacetylase/N-sulfotransferase (heparan glucosaminyl) 2),1,97.4,65.8
Ndst2 (N-deacetylase/N-sulfotransferase (heparan glucosaminyl) 2),2,106,154
Ndst2 (N-deacetylase/N-sulfotransferase (heparan glucosaminyl) 2),3,110,120
Lce3c (late cornified envelope 3C),1,81.4,74.5
Lce3c (late cornified envelope 3C),2,85,93.3
Lce3c (late cornified envelope 3C),3,186 (active),149
Stk10 (serine/threonine kinase 10),1,67.8,47.8
Cenph (centromere protein H),1,61.2,82.1
Cenph (centromere protein H),2,73,80.3
Cenph (centromere protein H),3,87.8,86.9
Gspt1 (G1 to S phase transition 1),1,131 (active),93
Gspt1 (G1 to S phase transition 1),2,96.7,75.9
Gspt1 (G1 to S phase transition 1),3,76.5,68.6
Gpx5 (glutathione peroxidase 5),1,95.2,121
Gpx5 (glutathione peroxidase 5),2,74.7,72
Gpx5 (glutathione peroxidase 5),3,43.6,44

11 neighbouring reagents from above, for reference:
Target gene,siRNA no.,"GFP, % of control","viability (ATP), % of control"
Sipa1l3 (signal-induced proliferation-associated 1 like 3),3,63.1,64.4
"Syne2 (spectrin repeat containing, nuclear envelope 2)",1,120 (active),92.7
"Syne2 (spectrin repeat containing, nuclear envelope 2)",2,83.9,84.9
"Syne2 (spectrin repeat containing, nuclear envelope 2)",3,95.7,110
"Hbb-b1 (hemoglobin, beta adult major chain)",1,63.8,50.4
"Hbb-b1 (hemoglobin, beta adult major chain)",2,126 (active),96
"Hbb-b1 (hemoglobin, beta adult major chain)",3,93,64.4
Gabra1 (gamma-aminobutyric acid type A receptor subunit alpha 1),1,93.1,94.2
Gabra1 (gamma-aminobutyric acid type A receptor subunit alpha 1),2,64.9,60
Gabra1 (gamma-aminobutyric acid type A receptor subunit alpha 1),3,46.9,49.1
Tg (thyroglobulin),1,25.3,62.5

More records follow.
Target gene,siRNA no.,"GFP, % of control","viability (ATP), % of control"
Plin3 (perilipin 3),1,104,75.4
Plin3 (perilipin 3),2,120 (active),84.5
Plin3 (perilipin 3),3,89.1,77.8
Cfap96 (cilia and flagella associated protein 96),1,53.6,76.2
Cfap96 (cilia and flagella associated protein 96),2,81.5,67.9
Cfap96 (cilia and flagella associated protein 96),3,62.6,82.2
Garin1b (golgi associated RAB2 interactor 1B),1,78.6,52.6
Garin1b (golgi associated RAB2 interactor 1B),2,58.5,62.7
Garin1b (golgi associated RAB2 interactor 1B),3,128 (active),107
Slc25a12,1,106,112
Slc25a12,2,38.4,23.5
Slc25a12,3,64.8,73.1
Rpa2 (replication protein A2),1,119,87.6
Rpa2 (replication protein A2),2,101,98.4
Dolpp1 (dolichyl pyrophosphate phosphatase 1),1,97.7,84.4
Dolpp1 (dolichyl pyrophosphate phosphatase 1),2,85.5,63.9
Dolpp1 (dolichyl pyrophosphate phosphatase 1),3,80,57.8
Opa3 (optic atrophy 3),1,62.7,72.7
Opa3 (optic atrophy 3),2,167 (active),65.2
Opa3 (optic atrophy 3),3,104,106
Dcaf5 (DDB1 and CUL4 associated factor 5),1,28.7,50.4
Dcaf5 (DDB1 and CUL4 associated factor 5),2,80.1,59.6
Dcaf5 (DDB1 and CUL4 associated factor 5),3,93.7,99.9
Dusp13b (dual specificity phosphatase 13B),1,87,71.6
Dusp13b (dual specificity phosphatase 13B),2,93.2,84.7
Dusp13b (dual specificity phosphatase 13B),3,93.3,57.2
Uba6 (ubiquitin-like modifier activating enzyme 6),1,56.2,53.5
Uba6 (ubiquitin-like modifier activating enzyme 6),2,59.9,44.6
Uba6 (ubiquitin-like modifier activating enzyme 6),3,78.4,72.4
Or5p79 (olfactory receptor family 5 subfamily P member 79),1,67.7,57.5
Or5p79 (olfactory receptor family 5 subfamily P member 79),2,91.9,85
Or5p79 (olfactory receptor family 5 subfamily P member 79),3,35.4,60.3
Itgb1bp2 (integrin beta 1 binding protein 2),1,58.7,63.1
Itgb1bp2 (integrin beta 1 binding protein 2),2,89,62.5
Itgb1bp2 (integrin beta 1 binding protein 2),3,102,99.4
"Cyp39a1 (cytochrome P450, family 39, subfamily a, polypeptide 1)",1,55.9,64.4
"Cyp39a1 (cytochrome P450, family 39, subfamily a, polypeptide 1)",2,91.9,114
"Cyp39a1 (cytochrome P450, family 39, subfamily a, polypeptide 1)",3,79.8,82.6
Bmp10 (bone morphogenetic protein 10),1,85.7,61.8
Bmp10 (bone morphogenetic protein 10),2,28.8,18.6
Bmp10 (bone morphogenetic protein 10),3,67.7,58.6
Tmem204 (transmembrane protein 204),1,57.3,53.6
Tmem204 (transmembrane protein 204),2,126 (active),103
Tmem204 (transmembrane protein 204),3,128 (active),150
Itgb7 (integrin beta 7),1,56.8,65.2
Itgb7 (integrin beta 7),2,80.3,73.7
Itgb7 (integrin beta 7),3,40.5,15.4
"Chaf1b (chromatin assembly factor 1, subunit B)",1,89.2,107
"Chaf1b (chromatin assembly factor 1, subunit B)",2,63.1,66.2
"Chaf1b (chromatin assembly factor 1, subunit B)",3,44.7,54.2
1700120K04Rik (RIKEN cDNA 1700120K04 gene),1,64.2,52.7
1700120K04Rik (RIKEN cDNA 1700120K04 gene),2,46.7,84.8
1700120K04Rik (RIKEN cDNA 1700120K04 gene),3,60.1,55.8
Cdh4 (cadherin 4),1,66.1,96.6
Cdh4 (cadherin 4),2,41.5,85.2
Cdh4 (cadherin 4),3,21.6,11.4
Thrap3 (thyroid hormone receptor associated protein 3),1,104,91.9
Thrap3 (thyroid hormone receptor associated protein 3),2,68,58.1
Thrap3 (thyroid hormone receptor associated protein 3),3,81.9,51.6
S100a9 (S100 calcium binding protein A9 (calgranulin B)),1,132 (active),123
S100a9 (S100 calcium binding protein A9 (calgranulin B)),2,87.9,73.3
Arhgef6 (Rac/Cdc42 guanine nucleotide exchange factor 6),1,106,75.1
Arhgef6 (Rac/Cdc42 guanine nucleotide exchange factor 6),2,58.9,68.7
Arhgef6 (Rac/Cdc42 guanine nucleotide exchange factor 6),3,93.9,99.1
Btbd3 (BTB domain containing 3),1,96.4,95.2
Btbd3 (BTB domain containing 3),2,77.9,69.9
Btbd3 (BTB domain containing 3),3,114,145
"Basp1 (brain abundant, membrane attached signal protein 1)",1,82.5,90.4
"Basp1 (brain abundant, membrane attached signal protein 1)",2,81.5,96
"Basp1 (brain abundant, membrane attached signal protein 1)",3,94.9,92.7
Sestd1 (SEC14 and spectrin domains 1),1,86.9,70.2
Sestd1 (SEC14 and spectrin domains 1),2,74.6,97.8
Sestd1 (SEC14 and spectrin domains 1),3,73.4,74.8
